In publication PMC5323190:
These are yes or no findings as the source states them, for the method shown. Binding seen in cells or lysates may run through a third protein. Some entries that bind do so weakly or less than the wild type. Blank lines part the entries; values can stand above or below the molecule they belong to.

Protein sequences, listed by entry. Tags and fused reporters are not part of them. Residues count along the entry.
UniProt P21860, residues 20-1342: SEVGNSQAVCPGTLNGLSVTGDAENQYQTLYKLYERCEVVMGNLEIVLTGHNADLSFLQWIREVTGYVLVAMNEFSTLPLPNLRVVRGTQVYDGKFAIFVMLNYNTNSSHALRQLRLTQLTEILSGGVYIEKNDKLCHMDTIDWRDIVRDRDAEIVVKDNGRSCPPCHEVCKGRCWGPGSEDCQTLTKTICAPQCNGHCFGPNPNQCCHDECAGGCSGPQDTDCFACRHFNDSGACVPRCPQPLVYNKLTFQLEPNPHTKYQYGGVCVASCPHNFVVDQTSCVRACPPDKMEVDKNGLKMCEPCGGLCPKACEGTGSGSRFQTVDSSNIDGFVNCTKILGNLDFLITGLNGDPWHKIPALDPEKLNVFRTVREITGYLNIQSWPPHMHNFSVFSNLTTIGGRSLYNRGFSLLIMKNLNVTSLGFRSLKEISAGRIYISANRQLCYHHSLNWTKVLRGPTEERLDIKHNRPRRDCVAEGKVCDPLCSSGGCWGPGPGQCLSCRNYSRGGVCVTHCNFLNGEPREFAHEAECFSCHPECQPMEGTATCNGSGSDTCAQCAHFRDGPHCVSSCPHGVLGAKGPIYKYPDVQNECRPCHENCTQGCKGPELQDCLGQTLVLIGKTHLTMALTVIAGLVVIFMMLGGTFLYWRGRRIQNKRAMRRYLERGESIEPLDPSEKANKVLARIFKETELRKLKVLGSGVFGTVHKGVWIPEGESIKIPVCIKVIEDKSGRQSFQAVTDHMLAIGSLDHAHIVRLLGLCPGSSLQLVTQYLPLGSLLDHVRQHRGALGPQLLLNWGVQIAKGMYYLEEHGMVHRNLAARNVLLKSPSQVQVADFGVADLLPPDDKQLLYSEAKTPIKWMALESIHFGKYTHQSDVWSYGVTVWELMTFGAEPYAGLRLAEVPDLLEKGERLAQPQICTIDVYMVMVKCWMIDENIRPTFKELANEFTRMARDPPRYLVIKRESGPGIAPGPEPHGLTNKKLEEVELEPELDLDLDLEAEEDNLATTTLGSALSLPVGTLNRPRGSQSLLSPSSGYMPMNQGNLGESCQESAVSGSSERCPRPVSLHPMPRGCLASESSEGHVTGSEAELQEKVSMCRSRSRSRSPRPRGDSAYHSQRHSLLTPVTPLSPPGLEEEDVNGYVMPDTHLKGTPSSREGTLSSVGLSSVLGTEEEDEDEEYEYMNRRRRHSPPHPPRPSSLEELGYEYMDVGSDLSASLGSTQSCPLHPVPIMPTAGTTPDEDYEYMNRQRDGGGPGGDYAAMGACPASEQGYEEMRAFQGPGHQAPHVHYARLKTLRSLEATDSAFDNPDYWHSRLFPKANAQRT

Assays:
[1] = target: HER3 endogenous in breast cancer cells (T47-D, MCF-7, MDA-MB-453) (human (endogenous in T47-D, MCF-7, MDA-MB-453)) (UniProt P21860); experiment: proximity ligation; in situ PLA with anti-DJ-1 and anti-HER3 antibodies in T47-D and MCF-7 cells grown on chamber slides, starved 16 hours, with or without NRG-1 for 30 min
[2] = target: HER3 endogenous in breast cancer cells (T47-D, MCF-7, MDA-MB-453) (human (endogenous in T47-D, MCF-7, MDA-MB-453)) (UniProt P21860); experiment: co-IP; co-IP and Western blot from lysates of breast cancer cells (T47-D, MCF-7, MDA-MB-453), endogenous proteins; in T47-D and MCF-7 with DJ-1 Ab and with HER3 Ab, cells with or without NRG-1
[3] = target: human HER3 (full length), stably overexpressed in CHO cells (CHO-HER3) (human) (UniProt P21860); experiment: co-IP; co-IP and Western blot from lysates of CHO cells expressing full length human HER3 or HER3/HER2 chimeras; for the chimeras IP with an antibody against the extracellular domains of HER3 (anti-N-HER3)

binding [1]: binds | binding [2]: binds
Molecule: DJ-1 endogenous in breast cancer cells (T47-D, MCF-7, MDA-MB-453) (from UniProt Q99497 1-189)

binding [3]: binds
B1: DJ-1 in CHO-HER3 cells (protein, UniProt G3IEU2 1-189)
chain: MASKRALVILAKGAEEMETVIPVDVMRRAGIKVTIAGLAGKDPVQCSRDVMICPDTSLEDAKKQGPYDVVVLPGGNLGAQNLSESAVVKEILKEQESRKGLIAAICAGPTALLAHEIGFGSKVTTHPGAKDKMINGGHYSYTESRVERDGLILTSQGPGTSFEFALAIVEALSGKEMADKVKAPLLLKD
